Laboratory results from PMC4562336.
These are yes or no findings as the source states them, for the method shown.

Columns and labels:
[1] = molecular target: full-length human mitochondrial ATP-Mg/Pi carrier isoform 1 (HsAPC-1) (human) (UniProt Q6NUK1); test: SEC; Superdex 200 pg 16/60; 20 mM Tris pH 7.4, 50 mM NaCl, 0.03% (w/v) LMNG, 0.03 mg/mL tetra-oleoyl cardiolipin; mass of protein, detergent and lipid in the micelle determined colorimetrically; both purified
[2] = molecular target: HsAPC-1 regulatory domain and linker region (residues 14 to 174) (human) (UniProt Q6NUK1); test: crystal structure; calcium-bound HsAPC-1 RD, space groups P2 and P2(1)2(1)2(1); polyethylene glycol 8000 with 0.2 M ammonium sulfate or 0.2 M lithium sulfate; both purified
[3] = molecular target: HsAPC-1 regulatory domain and linker region (residues 14 to 174) (human) (UniProt Q6NUK1); test: SEC; Superdex 200 pg 16/60; second SEC of the pooled dimer peak (peak 2); purification buffer with 5 mM calcium or 5 mM EGTA, with 1 mM DTT; both purified
[4] = molecular target: HsAPC-1 regulatory domain and linker region (residues 14 to 174) (human) (UniProt Q6NUK1); test: SEC; Superdex 200 pg 16/60; SEC during purification and second SEC of pooled peaks 2 and 3; purification buffer with 5 mM calcium or 5 mM EGTA, without DTT; both purified

Row | Binder | binding [1] | binding [2] | binding [3] | binding [4]
1 | full-length human mitochondrial ATP-Mg/Pi carrier isoform 1 (HsAPC-1) (protein, UniProt Q6NUK1 1-477) MLRWLRDFVLPTAACQDAEQPTRYETLFQALDRNGDGVVDIGELQEGLRNLGIPLGQDAEEKIFTTGDVNKDGKLDFEEFMKYLKDHEKKMKLAFKSLDKNNDGKIEASEIVQSLQTLGLTISEQQAELILQSIDVDGTMTVDWNEWRDYFLFNPVTDIEEIIRFWKHSTGIDIGDSLTIPDEFTEDEKKSGQWWRQLLAGGIAGAVSRTSTAPLDRLKIMMQVHGSKSDKMNIFGGFRQMVKEGGIRSLWRGNGTNVIKIAPETAVKFWAYEQYKKLLTEEGQKIGTFERFISGSMAGATAQTFIYPMEVMKTRLAVGKTGQYSGIYDCAKKILKHEGLGAFYKGYVPNLLGIIPYAGIDLAVYELLKSYWLDNFAKDSVNPGVMVLLGCGALSSTCGQLASYPLALVRTRMQAQAMLEGSPQLNMVGLFRRIISKEGIPGLYRGITPNFMKVLPAVGISYVVYENMKQTLGVTQK | no binding | – | – | –
2 | HsAPC-1 regulatory domain and linker region (residues 14 to 174) (domain or fragment, UniProt Q6NUK1 14-174) ACQDAEQPTRYETLFQALDRNGDGVVDIGELQEGLRNLGIPLGQDAEEKIFTTGDVNKDGKLDFEEFMKYLKDHEKKMKLAFKSLDKNNDGKIEASEIVQSLQTLGLTISEQQAELILQSIDVDGTMTVDWNEWRDYFLFNPVTDIEEIIRFWKHSTGIDI | – | no binding | no binding (condition: with 1 mM DTT) | no binding
